Laboratory results: PubChem BioAssay AID1224830 (NIAID, 2016)
Assay: 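Host factors that control LPS-induced TNF expression in human macrophages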 (primary screen). System: human THP-1 monocytic leukaemia cells, TNF dual-luciferase reporter clone, PMA-differentiated to macrophage-like cells. Knock-down reagent: siRNA pool against human genes, 50 nM. Duration: LPS for 4 h, given about 3 days after siRNA transfection. Conditions: bacterial LPS (TLR4 ligand), 10 ng/ml. Measured: 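Ratio of firefly to renilla light, scaled to the plate median and expressed as a robust z-score per replicate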. Reading the numbers: TNF reporter robust z-score: higher = stronger TNF reporter response to LPS. Hit rule: 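a well is active when its z-score exceeds 2.8 or falls below -1.5; control wells carry no call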.
Shown is an unselected part of about 18,000 deposited reagents. In the full data, about 2,900 (16%) are marked active. 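Calls are made per well; low scores hint the gene aids the LPS response, high scores that it dampens it.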 Unmarked entries are inactive. Repeated entries: four replicate wells of each siRNA pool.

MYLK3
- TNF reporter robust z-score: 0.39

MYLK3
- TNF reporter robust z-score: 0.62

MYLK3
- TNF reporter robust z-score: 0.72

DUSP18
- TNF reporter robust z-score: 0.62

DUSP18
- TNF reporter robust z-score: -0.09

DUSP18
- TNF reporter robust z-score: -0.55

DUSP18
- TNF reporter robust z-score: 0.4

VCL
- TNF reporter robust z-score: -0.22

VCL
- TNF reporter robust z-score: -1.17

VCL
- TNF reporter robust z-score: -0.12

VCL
- TNF reporter robust z-score: -1.11

CFAP210
- TNF reporter robust z-score: 0

CFAP210
- TNF reporter robust z-score: 2.14

CFAP210
- TNF reporter robust z-score: -0.59

CFAP210
- TNF reporter robust z-score: 0.08

H2AC1
- TNF reporter robust z-score: -0.63

H2AC1
- TNF reporter robust z-score: -0.39

H2AC1
- TNF reporter robust z-score: -0.77

H2AC1
- TNF reporter robust z-score: 0.15

ELAVL1
- TNF reporter robust z-score: 0.28

ELAVL1
- TNF reporter robust z-score: 0.16

ELAVL1
- TNF reporter robust z-score: 0.14

ELAVL1
- TNF reporter robust z-score: 0.21

POGLUT1
- TNF reporter robust z-score: -0.21

POGLUT1
- TNF reporter robust z-score: 0.47

POGLUT1
- TNF reporter robust z-score: -0.31

POGLUT1
- TNF reporter robust z-score: 0.56

MBOAT7
- TNF reporter robust z-score: 0.31

MBOAT7
- TNF reporter robust z-score: 1.67

MBOAT7
- TNF reporter robust z-score: 0.77

MBOAT7
- TNF reporter robust z-score: 1.4

CCDC172
- TNF reporter robust z-score: 0.99

CCDC172
- TNF reporter robust z-score: 0.58

CCDC172
- TNF reporter robust z-score: 0.3

CCDC172
- TNF reporter robust z-score: 1.48

Laid out differently: 6 of the entries above
{"target gene": "VCL", "TNF reporter robust z-score": -1.17}
{"target gene": "VCL", "TNF reporter robust z-score": -0.12}
{"target gene": "VCL", "TNF reporter robust z-score": -1.11}
{"target gene": "CFAP210", "TNF reporter robust z-score": 0}
{"target gene": "CFAP210", "TNF reporter robust z-score": 2.14}
{"target gene": "CFAP210", "TNF reporter robust z-score": -0.59}
